# The list shows a part of the results.
# By UniProt entry, the sequences of proteins in these tests, tags left out.
# UniProt Q0JBA9, entry or part of it: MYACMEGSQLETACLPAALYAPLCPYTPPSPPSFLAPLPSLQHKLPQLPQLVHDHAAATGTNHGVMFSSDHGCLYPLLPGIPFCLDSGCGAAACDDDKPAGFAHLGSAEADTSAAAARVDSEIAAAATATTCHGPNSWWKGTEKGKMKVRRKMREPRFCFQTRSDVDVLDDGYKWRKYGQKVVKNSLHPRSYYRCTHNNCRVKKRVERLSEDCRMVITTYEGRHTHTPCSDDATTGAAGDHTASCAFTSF
# Target: OsWRKY34 (Oryza sativa, UniProt Q0JBA9 1-250)
# Experiment: protein-binding microarray (RPBM); PBS, 2% BSA, 51.3 ng/ul salmon testes DNA, 50 uM zinc acetate, 200 nM TF, 25 C, 1 h; high values mean tight binding
# Details: protein: recombinant; tags: N-terminal polyhistidine and DsRed monomer fusion (pET32a); label: CyDye5-dUTP incorporated in the synthesized complementary strand; 3' TTTTT single-stranded linker to array surface; dsDNA, one strand shown
# Method in brief: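 The binding signal for each feature is its fluorescence intensity in arbitrary units. An Axon 4000B scanner was used to read a custom Agilent array that had been made double-stranded with Cy5-dUTP primer extension, blocked with 2% BSA, incubated at 25 °C for 1 h with 200 nM protein in PBS, 2% BSA, salmon testes DNA and 50 µM zinc acetate, and washed. The protein was an N-terminal polyhistidine–DsRed transcription factor fusion from E. coli BL21-CodonPlus, purified on Ni–NTA.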
row,Sequence,binding signal
1,CGTCCCGCACTCCGTCAACACCTCGTCGGCGCTCAACTTCCGGAGTCACCTAGTGCAG,11200 fluorescence intensity (a.u.)
2,GTGGGGTGGGTGAGCGGGATGCGGGGCTTAGGCGGGGAAGCGGAGTCACCTAGTGCAG,16500 fluorescence intensity (a.u.)
3,CAAATATCTCTAATATGCAGGCTGCTTGTATTATCCGTATCGGAGTCACCTAGTGCAG,8110 fluorescence intensity (a.u.)
4,TGCCATGTCACCGCGATGTTGATTTATGACTGGATTTCACCGGAGTCACCTAGTGCAG,8530 fluorescence intensity (a.u.)
5,TCCATGGCGGCTGGCTATACCTTTCTGCACTACATTTGCACGGAGTCACCTAGTGCAG,8150 fluorescence intensity (a.u.)
6,AACAAACGTGGCATTATCAACCTTTACATGTCTTAGGCTTCGGAGTCACCTAGTGCAG,9260 fluorescence intensity (a.u.)
7,ATTCCTGACTCCCTCCTCCTCCACCTCCACCGTCTCGTCTCGGAGTCACCTAGTGCAG,8470 fluorescence intensity (a.u.)
8,CGTGACCTTGTTTGTATATCCACATACGCGAGTTCACATCCGGAGTCACCTAGTGCAG,8890 fluorescence intensity (a.u.)
9,CTCTTATTCTATTTATGTTTGTGCTGTAATCTCCGCTCTTCGGAGTCACCTAGTGCAG,8680 fluorescence intensity (a.u.)
10,TCCCTACACTCTACGTACGTACAGTACTCCTATACAGCAACGGAGTCACCTAGTGCAG,11300 fluorescence intensity (a.u.)
11,CCGTCATTAGCAAATATTTACTGTAGCATCATATTACATTCGGAGTCACCTAGTGCAG,8110 fluorescence intensity (a.u.)
12,CTCCCACCACCTTTCTTTGCTTTCTTTGACCACCACCATTCGGAGTCACCTAGTGCAG,11300 fluorescence intensity (a.u.)
13,ACTTTCTAGCACTGCCTACATTATTATATATGTTAATGAACGGAGTCACCTAGTGCAG,10900 fluorescence intensity (a.u.)
14,ATCCTGGGCCGCCCTTAGACGTGACAACCACACACACACACGGAGTCACCTAGTGCAG,9100 fluorescence intensity (a.u.)
15,ACAGTTAAATTTTAAGCACATGTTTGACTATTCGTCTTATCGGAGTCACCTAGTGCAG,8960 fluorescence intensity (a.u.)
16,TTGTGTCATGTCGTCAAGCTGGCAGGTCAAAGCTAAGCTACGGAGTCACCTAGTGCAG,8760 fluorescence intensity (a.u.)
17,GAACAATTTGTCTTTTGCGTGTATGGTTCCCACTTTCCCACGGAGTCACCTAGTGCAG,8510 fluorescence intensity (a.u.)
18,TCCCGTCTCGTTCTCGTTACTGTCTCCTCCGCTCCTCTCCCGGAGTCACCTAGTGCAG,8550 fluorescence intensity (a.u.)
19,AAGAGAGTTTAGGGGTACACATTTCTGGTTTTGTAGTTAACGGAGTCACCTAGTGCAG,8180 fluorescence intensity (a.u.)
20,GTGTAGCTTATCTGCAAGCGAGTTTGTGTAATGTCCTATTCGGAGTCACCTAGTGCAG,8760 fluorescence intensity (a.u.)
21,ATGACAAAATCACGCGTCATGCAGAATCCTCACTGCATTTCGGAGTCACCTAGTGCAG,8100 fluorescence intensity (a.u.)

row,Sequence,binding signal
1,CCGCCACCCTACGGCTCTCCACCACACTGCCATCCACTACCGGAGTCACCTAGTGCAG,9190 fluorescence intensity (a.u.)
2,GTTGCCTTTCTTTCGCGCTCAGTCTCTCTCGGCCAATTAACGGAGTCACCTAGTGCAG,9280 fluorescence intensity (a.u.)
3,ACAGAGTCGCCCGGTCAGACCGCGGGCTGACCGGTCTGACCGGAGTCACCTAGTGCAG,8170 fluorescence intensity (a.u.)
4,TACTCCCTCTGTTTTTTAATAGATGACGCCGTTGACTTTTCGGAGTCACCTAGTGCAG,17100 fluorescence intensity (a.u.)
5,CTCCCTCCGTTTCTAAATATTTGATACCGTTGACTTTTTACGGAGTCACCTAGTGCAG,22300 fluorescence intensity (a.u.)
6,ACTAGTAATGCCACGCATCGTATTATCCAATCTGAGATACCGGAGTCACCTAGTGCAG,8220 fluorescence intensity (a.u.)
7,AAACACGGACCTCCGGACCCACCCCATCCACCGTACACGTCGGAGTCACCTAGTGCAG,8580 fluorescence intensity (a.u.)
8,GGTGACGGCTGGTGTGGGTGTAGGGTGGCCGCGCGGTACGCGGAGTCACCTAGTGCAG,9460 fluorescence intensity (a.u.)
9,CTCCACACCACTAGCTAGTAATGTGGCCGCTCTCTCCTCACGGAGTCACCTAGTGCAG,8070 fluorescence intensity (a.u.)
10,GAATGATCCCACCTTTGCACATTGTGATTTTAATGTTTTCCGGAGTCACCTAGTGCAG,9170 fluorescence intensity (a.u.)
11,TTGTATACTTGTAATCACGTGCTATCTTTTCGCTGTTGCACGGAGTCACCTAGTGCAG,8990 fluorescence intensity (a.u.)
12,GTCCCTCCATGCACGCCCAAATAGCCAGTCACCTCCGCTCCGGAGTCACCTAGTGCAG,8270 fluorescence intensity (a.u.)
13,GCCTCAAACATCTCCACGCAGAAGGCAACTGCATCATCCACGGAGTCACCTAGTGCAG,9170 fluorescence intensity (a.u.)
14,TATATATATATATATATATGTGTGTGTGTGTGTGTATGGTCGGAGTCACCTAGTGCAG,9770 fluorescence intensity (a.u.)
15,AGAAGTGGTCTTGGTGGTTAGTTGTTTCCGTTGTATTCGTCGGAGTCACCTAGTGCAG,10200 fluorescence intensity (a.u.)
16,GTACTATTTCGCTTCGCCTCTCCTCTCTACCTCCGTCGCCCGGAGTCACCTAGTGCAG,8870 fluorescence intensity (a.u.)
17,GATACCGTTGACTTTTTAGCACATATTTGACCGTTCGTCTCGGAGTCACCTAGTGCAG,39400 fluorescence intensity (a.u.)
18,GAACCTAGAAATATTGTCTGTTTTCCTGCCGAACTGAACTCGGAGTCACCTAGTGCAG,9900 fluorescence intensity (a.u.)
19,TGAAGTTGATTATAGGTTTATTTTTTATGTTGGTTTTTAACGGAGTCACCTAGTGCAG,10200 fluorescence intensity (a.u.)
20,GCGCTCGTCGACGTCCTCCTGCGGTACATCTGCCAGCTCGCGGAGTCACCTAGTGCAG,8180 fluorescence intensity (a.u.)
21,TCATTGTGCTTTGAAAGGGCTGGGTGCAGTTGTTAATTTCCGGAGTCACCTAGTGCAG,12900 fluorescence intensity (a.u.)

row,Sequence,binding signal
1,ACTAGTACTTTTGCATACCAAAACTTTTACTATTTGCCATCGGAGTCACCTAGTGCAG,8570 fluorescence intensity (a.u.)
2,TTTCCTTTTACCTTTTCTCTTTGAAGAAAAAGAATTCGTCCGGAGTCACCTAGTGCAG,8240 fluorescence intensity (a.u.)
3,TCTTTTCTTTGACTGTCATGTTGCACGTTTTGCTTGGCGACGGAGTCACCTAGTGCAG,10400 fluorescence intensity (a.u.)
4,CGTCAGTCATCACTTTACTAATTTGAACTGATGTCGATCGCGGAGTCACCTAGTGCAG,8410 fluorescence intensity (a.u.)
5,CCTGGTTGGTTTGGCTCGCACGTGGCGCGTCGTCCTACGCCGGAGTCACCTAGTGCAG,9870 fluorescence intensity (a.u.)
6,GCAATCTTTGTGTTCCAACGGCTCCGCGGGTTCCATGCAACGGAGTCACCTAGTGCAG,8630 fluorescence intensity (a.u.)
7,TTATCTGCTTTGCTCGTTTCATCCAACGAGCCGAGCTACCCGGAGTCACCTAGTGCAG,9240 fluorescence intensity (a.u.)
8,TCTCTTTTGTGCACTTGGGAATGTAATTTTCTATCACTATCGGAGTCACCTAGTGCAG,8870 fluorescence intensity (a.u.)
9,ATCCATCCACCGCCACCACGCCGATCGATCTCCCCGCCGCCGGAGTCACCTAGTGCAG,11100 fluorescence intensity (a.u.)
10,AATAACAACACCTTCCATAATATTTCTCCCAGGTATAACACGGAGTCACCTAGTGCAG,8840 fluorescence intensity (a.u.)
11,TTCCTATATTTCTTTTTTGGTTCTTGTATTTATCATCTGACGGAGTCACCTAGTGCAG,9480 fluorescence intensity (a.u.)
12,GATATGATATGATATTTGTTGGGTTAGTCGATATATTCATCGGAGTCACCTAGTGCAG,9300 fluorescence intensity (a.u.)
13,TTATGTTAACCTTGTTGTTTCTTACATTAATGCACATAATCGGAGTCACCTAGTGCAG,8940 fluorescence intensity (a.u.)
14,CCTCATCATCTGCCCGTGTCCACCGCCCACCGTCGGCCCGCGGAGTCACCTAGTGCAG,10100 fluorescence intensity (a.u.)
15,AGGTGGTGGTGGTGGCAGAGACGTGCGCTCGAACGATTTCCGGAGTCACCTAGTGCAG,9910 fluorescence intensity (a.u.)
16,ACCCTAGCCACCCCGCGTCGCCCGCCTCGGCGCGCCCAAACGGAGTCACCTAGTGCAG,9260 fluorescence intensity (a.u.)
17,CGCCATTGCCACCAAGTTCCCTATAGCACAACGACCTTATCGGAGTCACCTAGTGCAG,9200 fluorescence intensity (a.u.)
18,TGGTGGGCGGTGGAGTTATTTTCTTAATAGAGCATTGAGACGGAGTCACCTAGTGCAG,23900 fluorescence intensity (a.u.)
19,CCGTTTTCATCCCTAGTCCGGCCACATTATTTGGAGACAACGGAGTCACCTAGTGCAG,8990 fluorescence intensity (a.u.)
20,CACGGTAACTTTTAGTAGATGGGTTGGTGATATATTTTTTCGGAGTCACCTAGTGCAG,8370 fluorescence intensity (a.u.)
21,GTTGACTAGGAGGAGGAGGAGGAGGAGGAGGAGGAGGGATCGGAGTCACCTAGTGCAG,9160 fluorescence intensity (a.u.)

# Pulled one by one from the entries so far, five records:
row,Sequence,binding signal
20,GTGTAGCTTATCTGCAAGCGAGTTTGTGTAATGTCCTATTCGGAGTCACCTAGTGCAG,8760 fluorescence intensity (a.u.)
8,GGTGACGGCTGGTGTGGGTGTAGGGTGGCCGCGCGGTACGCGGAGTCACCTAGTGCAG,9460 fluorescence intensity (a.u.)
13,TTATGTTAACCTTGTTGTTTCTTACATTAATGCACATAATCGGAGTCACCTAGTGCAG,8940 fluorescence intensity (a.u.)
15,ACAGTTAAATTTTAAGCACATGTTTGACTATTCGTCTTATCGGAGTCACCTAGTGCAG,8960 fluorescence intensity (a.u.)
2,GTGGGGTGGGTGAGCGGGATGCGGGGCTTAGGCGGGGAAGCGGAGTCACCTAGTGCAG,16500 fluorescence intensity (a.u.)

# Additional records follow.

row,Sequence,binding signal
1,GATGTTTTCTTAGGTCTCTTTTGACTTTGAATGTGTTCCTCGGAGTCACCTAGTGCAG,8300 fluorescence intensity (a.u.)
2,TCACTTGCCCTTGCATTACTTACAACTTGCTTCACGAAAACGGAGTCACCTAGTGCAG,8300 fluorescence intensity (a.u.)
3,GATTCCCACATCTGGTTCTTCTACTTAGTGGCTTCGACCTCGGAGTCACCTAGTGCAG,8920 fluorescence intensity (a.u.)
4,CCCTGCTCTGCCACGCCCGCCACCGTCTGCCGGCCTCTACCGGAGTCACCTAGTGCAG,10100 fluorescence intensity (a.u.)
5,GCTTGGACAAGTACTGCTTTTCTTGATCTTTTGCTTTACACGGAGTCACCTAGTGCAG,11900 fluorescence intensity (a.u.)
6,TGCGATAGGTCTTCAGAAATGCCTCTGTGTTTATCATTGACGGAGTCACCTAGTGCAG,8180 fluorescence intensity (a.u.)
7,TACGTACATACCACCCTGCGCTTGTCATCAAACAACGGTCCGGAGTCACCTAGTGCAG,9110 fluorescence intensity (a.u.)
8,TTGAACCTTCATCATCTGCAATTTTCCAGGTTTATTTTAACGGAGTCACCTAGTGCAG,8330 fluorescence intensity (a.u.)
9,AAAACTCCCTCCGATTTTATTTGTTTGATGTTGGTTAGTTCGGAGTCACCTAGTGCAG,12500 fluorescence intensity (a.u.)
10,CGCCGCCGCTCCAGCTCCAGCCGCCCGTGCTCCCTCGCGGCGGAGTCACCTAGTGCAG,8200 fluorescence intensity (a.u.)
11,AATTCCACTTGTATTTTATTAGACTTACCTACATACAAATCGGAGTCACCTAGTGCAG,11200 fluorescence intensity (a.u.)
12,CCCTTCTTTCTTTCTCTTTTCCCTCCCTTTCTTCTTTTTCCGGAGTCACCTAGTGCAG,8950 fluorescence intensity (a.u.)
13,TGTGTGGTTGCGCGGCCAATTTTAGTTCAGGCTTCAGGGCCGGAGTCACCTAGTGCAG,8610 fluorescence intensity (a.u.)
14,GACGAGAGCCCATGGACATCATCTTTTCGCTTATGCTTATCGGAGTCACCTAGTGCAG,10200 fluorescence intensity (a.u.)
15,CTTCCCATGTTTTTTTTAATTTCTAATTTTAGTTATTTGTCGGAGTCACCTAGTGCAG,9650 fluorescence intensity (a.u.)
16,TTTATAAGAAACGGCCGTGTTTGGTGGTGGGTGTTGGGAACGGAGTCACCTAGTGCAG,11900 fluorescence intensity (a.u.)
17,TCACCAAACACCTCGATCCATCCCTCTACCCTTCAAGAAACGGAGTCACCTAGTGCAG,9270 fluorescence intensity (a.u.)
18,GAACATGCTCACTAGGAATATTTGCTTATCTTCTTAAAACCGGAGTCACCTAGTGCAG,8100 fluorescence intensity (a.u.)
19,CCTCGAAAAGAGAAGGTGGAGGGGATGGGGTGAATTTAAACGGAGTCACCTAGTGCAG,11700 fluorescence intensity (a.u.)
20,GAACTAAACATGGCCTTACTAACCATTGACGTCACGATTCCGGAGTCACCTAGTGCAG,8260 fluorescence intensity (a.u.)
21,CCTTGCGCGCACCACGCCACCACCTCCACCTCCACTTCGCCGGAGTCACCTAGTGCAG,11400 fluorescence intensity (a.u.)

# From publication PMC7819943, “Rice protein-binding microarrays: a tool to detect cis-acting elements near promoter regions in rice”
